Results taken from publication PMC9204177.
Results are given in words; binding and its absence hold for the method and conditions named. In cells and extracts the contact can be indirect. These calls come from enrichment with a bait or labelling near it, and not all partners need be listed. No binding means not detected with the bait. Blank lines part the entries; values can stand above or below the binder they belong to.

Biological target: recombinant TMEM95∆Tm (mouse TMEM95 lacking the transmembrane domain) (mouse)
Assay: affinity purification with mass spectrometry; TMEM95∆Tm held by its His tag on His Mag Sepharose Excel beads; incubated overnight at 4°C with the supernatant of WT mouse sperm lysate (50 mM Tris-HCl pH 7.5, 1 mM EDTA, 1% Igepal); eluted with 500 mM imidazole; HPLC-MS/MS; proteins also found with unconjugated beads or with conjugated beads without sperm lysate were removed by a Venn diagram; only the target purified

binding: no binding
B1: DCST1 (protein, UniProt Q059Y8 1-732)
chain: MAFLSSTLHSLGIFEKISRIKEVLKNRLLDLTKRRDQAREQQRKRPHTIIQGLLLWSLPVSWIRFLWRQPGEFPVTAFLLGAGTGGLLAIGLFQLLVNPMNIYEEQKVVALYCLASLGAIGWGTSPHIRCASLLLVPKMLGKEGRLFVMGYALAAIYSGPAANLRSNINEVIASLGCTVELQINNTRSAWRVSTAPLRAVFKGMVGSKDSLNKEIQNVSTSFEEMDEQVKSDAGYSSEDWDKNRESTEMFGTSRVRPYLSTQMVYELRTRLRCIHVVNKAILSCYRWFDKKHKNCMRRIHLPLFNNMICVPMKFKFLCNIAKVIEIWCYKRIPVEGNFGQTYDSVNQSIHGLSGEFSANINLKEEKQSSMVGLNTTNWEHMGTEVRDYVRQQETYLQWAMGLLHVLLSCTFLLVFHSAFSYMDHYNWDIRFDNIYISTYFCQIDARRKKLGKQSLLPLRKAERKTVIFPFKATIQAWEMRYVIRELLETLPIVLLLLVLCAIDWALYSVFDTIRQHSFVQYSFRSSHKLEIKVEGDSILAKLLRKTIGALNTSSSTDVETNNMPCLPQPISLNARDYFKASLPTLLLVCLCLAQAFGYRLRRVIAAFYFPKREKKRALFFYNEFLKKRSAFTKLRRAAIVRRANQQKAPPHYLVEALYRRCPLLHRFMRQRCVVCQAMETPDSYVCPTPDCKALYCRSCWDDMQRLCPVCTPREELSSSAHSDSNDDAVYGD

binding: no binding
B2: SPACA6 (protein, UniProt E9Q8Q8 42-339)
chain: CLFCFTTYEERLRVCQLFVGREETKINLCRNELEGAFEDLKDMKINYDERSYLHDEFTQMTVSLQEKAARRREPFWLAFKDAAAKLKRTIEHLKKAPACIPPCGLQEVARLFHCSGCFSKLCDLPLDCPVQDMLVNRGDQALFSCIVAFELPESEITYSWKFVGGVRTKDVTYFRDMPGAHGYLARIRPVQPKHGGTFSCVILHDQRPLARLYFYLNVTGPPPPEDTELQVTFREVMNRTPAEPEMIQPWSPSLGELLTNPQALTLGNLFLLAATAALGSASVTLLVWLFFRWYLSGN

binding: no binding
B3: IZUMO1 (protein, UniProt Q9D9J7 22-397)
chain: CIKCDQFVTDALKTFENTYLNDHLPHDIHKNVMRMVNHEVSSFGVVTSAEDSYLGAVDENTLEQATWSFLKDLKRITDSDLKGELFIKELLWMLRHQKDIFNNLARQFQKEVLCPNKCGVMSQTLIWCLKCEKQLHICRKSLDCGERHIEVHRSEDLVLDCLLSWHRASKGLTDYSFYRVWENSSETLIAKGKEPYLTKSMVGPEDAGNYRCVLDTINQGHATVIRYDVTVLPPKHSEENQPPNIITQEEHETPVHVTPQTPPGQEPESELYPELHPELYPELIPTVAQNPEKKMKTRLLILLTLGFVVLVASIIISVLHFRKVSAKLKNASDEVKPTASGSKSDQSLSQQMGLKKASQADFNSDYSGDKSEATEN
